Experimental data: paper PMC3742540
Residue numbers refer to the chain shown, from its start. Results are given in words; binding and its absence hold for the method and conditions named. In cells and extracts the contact can be indirect. Binding can be weak; no strength is given. Tags and fused reporters may be left off the sequences shown.

The chains behind the UniProt entries cited, without tags or fusion partners. Where a name states a change or a piece, a line headed by the entry shows the natural chain unless it says otherwise.
UniProt P60953: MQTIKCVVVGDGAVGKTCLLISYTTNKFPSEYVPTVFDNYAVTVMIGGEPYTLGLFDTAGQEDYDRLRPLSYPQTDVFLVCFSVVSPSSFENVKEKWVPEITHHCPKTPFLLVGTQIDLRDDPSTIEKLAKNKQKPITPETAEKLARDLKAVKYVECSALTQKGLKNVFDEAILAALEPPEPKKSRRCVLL
UniProt P60766: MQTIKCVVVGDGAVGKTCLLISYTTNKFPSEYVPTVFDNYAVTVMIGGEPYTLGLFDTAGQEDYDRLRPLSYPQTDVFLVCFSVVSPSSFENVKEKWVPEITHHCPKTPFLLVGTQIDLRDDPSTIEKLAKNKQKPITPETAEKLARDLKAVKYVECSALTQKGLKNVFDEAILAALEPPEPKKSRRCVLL
UniProt P61586: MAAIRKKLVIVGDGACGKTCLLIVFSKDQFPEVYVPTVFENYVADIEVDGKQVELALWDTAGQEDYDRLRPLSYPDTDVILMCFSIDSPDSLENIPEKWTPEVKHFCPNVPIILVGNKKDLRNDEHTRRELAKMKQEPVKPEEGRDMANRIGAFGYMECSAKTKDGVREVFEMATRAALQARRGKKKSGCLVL
UniProt Q9QUI0: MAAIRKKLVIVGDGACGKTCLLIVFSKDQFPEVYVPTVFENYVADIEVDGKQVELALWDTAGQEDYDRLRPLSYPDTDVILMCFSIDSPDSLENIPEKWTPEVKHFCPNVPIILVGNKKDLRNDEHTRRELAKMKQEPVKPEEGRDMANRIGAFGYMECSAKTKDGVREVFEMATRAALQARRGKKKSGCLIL

Experiments:
[1] = target: T1, Myc-tagged RhoGDIα expressed in HEK293T cells (not stated (human or mouse cDNA cloned)) (UniProt P52565); test: co-IP; HEK293T cells expressing Myc-RhoGDIα alone or with Flag-tagged wild-type or mutant human FRMD7, 48 h; Myc-RhoGDIα precipitated with anti-Myc antibody bound to protein A/G-Sepharose; blots for Rac1, Cdc42, RhoA and Flag
T1 sequence: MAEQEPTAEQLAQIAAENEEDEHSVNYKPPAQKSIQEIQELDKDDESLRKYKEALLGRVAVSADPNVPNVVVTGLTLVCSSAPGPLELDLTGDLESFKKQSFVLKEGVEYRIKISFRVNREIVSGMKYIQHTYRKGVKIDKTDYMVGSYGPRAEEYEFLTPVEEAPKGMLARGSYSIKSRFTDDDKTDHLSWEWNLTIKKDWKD

[2] = target: T2, Myc-tagged mouse RhoGDIα (mouse) (UniProt Q99PT1); test: co-IP; Neuro-2a cells expressing Myc-RhoGDIα with or without Flag-full-length FRMD7; Myc-RhoGDIα precipitated with 3 µg anti-Myc antibody bound to protein A/G-Sepharose; blots for Rac1, Cdc42, RhoA and Flag
T2 sequence: T1 sequence with V71I, G74R, S81T, V162M, S176N, D201E

binding [1]	binding [2]	Substance
binds	–	endogenous Cdc42 (HEK293T) (from UniProt P60953)
–	binds	endogenous Cdc42 (Neuro-2a) (from UniProt P60766)
binds	–	endogenous RhoA (HEK293T) (from UniProt P61586)
–	binds	endogenous RhoA (Neuro-2a) (from UniProt Q9QUI0)
